Here are results for 39 compounds from PubChem BioAssay AID2685 (National Center for Advancing Translational Sciences (NCATS), 2010).

A word on the AC50: it is the midpoint of the concentration-response curve, whichever way the signal moves. A high value points to weaker potency.

A short description of this experiment: qHTS Assay for Lipid Storage Modulators in Drosophila S3 Cells.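 As to cell number change: cells counted by Cell Tracker Red CMTPX staining in the red channel.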 The settings on record: BODIPY lipid droplet fluorescence, 18-24 h; for cell number change: measured here: cell count max response, cells fed with added oleic acid. Summed up: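 Drosophila S3 cells got compounds at several concentrations plus oleic acid (400 uM solution). Laser-scanning cytometry with 488 nm excitation read lipid droplets at 500-530 nm and cells at 575-640 nm. Percent activity was relative to 20 uM Triacsin C.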

[1] abbreviates: measured here: lipid fluorescence (Fed channel) AC50, cells fed with added oleic acid.
Setting [2] is: measured here: cell number channel AC50, cells fed with added oleic acid.

This is one part of the list. Further columns of the screen follow, without active or inactive calls. Most of these compounds were active or inconclusive in the main read-out, so they are no random draw. Words in brackets tell the shape of the fitted curve; partial curves, single points and poor fits give uncertain potencies.

On to `COc1ccc(S(=O)(=O)N2CCCCC2)cc1NC(=O)CCCOc1ccc(C)cc1`, for which the cell number change was -6.29%. For the same compound, the AC50 under setting [1] was 0.0731 µM [falling, partial curve, poor fit].

In the case of `COc1ccc(CN(Cc2cccn2C)S(=O)(=O)c2ccc(C)cc2)cc1`, the AC50 under setting [1] was 0.326 µM [rising, full curve, poor fit].

In the case of `CCC(CO)Nc1ccc(-c2nn(C)c(=O)c3ccccc23)cc1[N+](=O)[O-]` (configuration not stated), the cell number change is -35.1%. The AC50 under setting [2] was 13 µM [falling, partial curve]. In addition, under setting [1], the AC50 is 5.17 µM [falling, partial curve].

In the case of `O=C(Nc1ccc2c(c1)C(=O)OC2)c1ccc(Cl)cc1Cl`, the cell number change was 62.6%. In addition, under setting [2], the half-maximal activity concentration (AC50) was 20.6 µM [rising, single point]. Besides, under setting [1], the AC50 was 23.1 µM [rising, partial curve].

With `Cc1ccc(Cl)cc1NC(=O)c1ccc(NC(=O)CCC(=O)O)cc1`, the cell number change was -62%. For the same compound, the half-maximal activity concentration (AC50) under setting [2] was 29.1 µM [falling, single point]. Besides, the AC50 under setting [1] was 29.1 µM [falling, single point].

On to `O=C1NC(=S)N/C1=C/c1ccc2c(c1)OCO2`, for which the cell number change was -18%. In addition, the AC50 under setting [1] was 29.1 µM [falling, single point].

`c1ccc(Cn2c(CNc3nc4ccccc4n3CCN3CCOCC3)nc3ccccc32)cc1`: the cell number change turned out to be 0.247%. Also, the AC50 under setting [2] was 6.51 µM [falling, single point].

In the case of `CC(C)CN(C(=O)COC(=O)c1c(Cl)ccc(Cl)c1Cl)C1CCS(=O)(=O)C1` (configuration not stated), the cell number change is -29.8%. In addition, under setting [1], the concentration at half-maximal activity (AC50) was 4.11 µM [rising, single point].

Regarding `CC(NO)/C(=N\O)c1cccs1` (configuration not stated), the cell number change is -11.4%. Under setting [2], the half-maximal activity concentration (AC50) is 5.8 µM [falling, single point]. The AC50 under setting [1] is 3.26 µM [falling, full curve].

As for `C/C(=N\NC(=O)CNC(=O)c1ccc2c(c1)OCO2)c1ccco1`, the cell number change was -10.9%. The AC50 under setting [1] is 3.66 µM [falling, partial curve].

As for `CC(C)CNC(=S)N1CCN(c2nc(-c3ccc(Cl)cc3)cs2)CC1`, the cell number change is 8.55%.

In the case of `CC(=O)n1cc(Nc2ccc([N+](=O)[O-])cc2)c2ccccc21`, the cell number change turned out to be 14.9%. Further, the AC50 under setting [2] is 0.00517 µM [rising, full curve, poor fit].

`O=C(Nc1ccnn1C1CCN(C(=O)c2ccc(Cl)c(F)c2)CC1)C1CCOC1` (configuration not stated): the cell number change amounted to 17.9%.

For the compound `Cc1ccc(C2CC(c3cccs3)=NN2C(=O)CSc2nc3ccccc3o2)cc1` (configuration not stated), the cell number change was -19.6%. Further, the AC50 under setting [1] is 18.4 µM [falling, partial curve].

With `O=C1CC2(CCN(C(=O)C3CC(=O)N(c4ccc(F)cc4)C3)CC2)Oc2ccccc21` (configuration not stated), the cell number change is -26%. Besides, the AC50 under setting [1] is 0.13 µM [falling, full curve, poor fit].

Take `COc1ccc(CN=C2NC(=O)CC(C(=O)Nc3cc(C)cc(C)c3)S2)cc1` (configuration not stated): the cell number change was -20.1%. Besides, the AC50 under setting [2] was 0.82 µM [falling, full curve, poor fit].

As for `O=C(N/N=C/c1ccccc1O)C1CCCC1`, the cell number change was -15.3%.

Regarding `CNc1nc2ccccc2n1N`, the cell number change is -7.72%. The AC50 under setting [1] was 29.1 µM [rising, single point].

In the case of `Cc1cc(Cn2nc(C(=O)NCc3cccs3)cc2-c2ccccc2)on1`, the cell number change turned out to be 19%. Also, the AC50 under setting [1] was 6.51 µM [rising, partial curve, poor fit].

`Cn1cc(CC(=O)NCCCN2CCCC2=O)c2ccccc21`: the AC50 under setting [1] was 2.06 µM [rising, single point].

For `Cc1nn(C)cc1S(=O)(=O)NCc1ccccc1Cl`, the cell number change is -18.8%. For the same compound, the AC50 under setting [1] was 6.51 µM [rising, partial curve, poor fit].

Regarding `Cc1ccc(C(=O)NCC(=O)N2CCCCCCC2)cc1`, the cell number change was -4.64%. The AC50 under setting [1] was 1.46 µM [falling, full curve].

On to `CCCCn1ccnc1C`, for which the cell number change was determined as 14.5%. Also, the AC50 under setting [1] was 6.51 µM [falling, single point].

`c1ccc(Nc2nc(N3CCCC3)nc(N3CCCC3)n2)cc1`: the cell number change worked out at 12.9%. Further, the half-maximal activity concentration (AC50) under setting [1] was 5.8 µM [rising, single point].

As to `Cc1cccc(NC(=O)CN(c2ccc(C(C)C)cc2)S(=O)(=O)c2c(C)nn(C)c2C)n1`, the cell number change was -18.3%. For the same compound, the AC50 under setting [2] is 2.31 µM [falling, single point]. For the same compound, the AC50 under setting [1] is 1.84 µM [rising, partial curve].

`O=C(CS(=O)(=O)c1ccc(Cl)cc1)Nc1nnc(-c2cccs2)o1`: the cell number change was -11.9%. In addition, the AC50 under setting [1] was 2.31 µM [falling, full curve].

As to `Cc1cc(C)c[n+](C2=C([O-])c3ccccc3C(=O)/C2=N\S(=O)(=O)c2cccs2)c1`, the cell number change is -15.3%. Further, the AC50 under setting [1] was 3.66 µM [falling, single point].

With `O=C(COc1cccc2ccccc12)Nc1cc(S(=O)(=O)N2CCOCC2)ccc1N1CCOCC1`, the cell number change is -63.9%.

As to `CSc1c(SCc2ccccc2)cnn(Cc2ccccc2)c1=O`, the cell number change was -3.69%. Further, the AC50 under setting [1] was 0.00517 µM [rising, full curve, poor fit].

Consider `COC(=O)CSC1=C(C#N)C(=O)NC(c2ccccc2)S1` (configuration not stated), for which the cell number change was -118%. For the same compound, the AC50 under setting [2] is 6.51 µM [falling, full curve].

With `CCCOc1ccc(-c2c(C(=O)N/N=C(\C)c3cccnc3)nnn2-c2nonc2N)cc1`, the cell number change is -0.59%. Also, the AC50 under setting [2] was 5.8 µM [falling, partial curve, poor fit]. Further, under setting [1], the AC50 is 29.1 µM [falling, partial curve].

For `c1ccc(Nc2nnc(SCc3cccc4ccccc34)s2)cc1`, the cell number change amounted to 70.8%. Further, the AC50 under setting [2] is 25.9 µM [rising, single point]. In addition, the AC50 under setting [1] is 1.3 µM [rising, full curve].

In the case of `CCOC(=O)c1c(CN(C)C)n(-c2ccccc2)c2cc(Br)c(OC)cc12`, the cell number change came out at 1.3%. Besides, under setting [1], the AC50 is 2.91 µM [falling, full curve].

For the compound `Cc1cc(=O)oc2c3c(cc(OCC(=O)N[C@H](C(=O)O)c4ccccc4)c12)OC(C)(C)CC3`, the cell number change amounted to 28.2%.

Turning to `CC(NC(=O)c1ccc(-c2ccccc2)cc1)C(c1ccccc1)N1CCOCC1` (configuration not stated), the cell number change was -8.88%. Further, the AC50 under setting [1] was 29.1 µM [falling, single point].

Regarding `COc1cccc(OCC(=O)Nc2ccc(OC)c(OC)c2)c1`, the cell number change was -24.3%. Also, under setting [1], the AC50 was 6.51 µM [rising, single point].

As for `Cc1ccc(S(=O)(=O)/N=C/N(C)C)cc1`, the cell number change was -8.4%.

For the compound `COc1ccc(-c2cc(NCCc3ccncc3)n3ncnc3n2)cc1`, the cell number change was 22.3%. Also, the AC50 under setting [1] was 0.461 µM [rising, full curve].

On to `CN(C)c1ccc(C2/C(=C(/O)c3ccccc3)C(=O)C(=O)N2CCCC(=O)O)cc1` (configuration not stated), for which the cell number change is -20.8%. Besides, under setting [1], the AC50 is 29.1 µM [falling, single point].
